Assay: Plasma potassium in sheep of the MCC study (marker for hyperkalemia)
Conditions: for Therapeutic Ratio: Benefit/Risk, sheep
Method: The animal model that has been used most often to measure changes in MCC is the sheep model. The effect of compounds for enhancing mucociliary clearance (MCC) can be measured using an in vivo model described by Sabater et al., Journal of Applied Physiology, 1999, pp. 2191-2196, incorporated herein by reference. In these studies, adult sheep were restrained and nasally intubated with an endotracheal tube. Aerosolized test articles were administered over 10-15 minutes to sheep. Radiolabeled ^99mTc-sulfur colloid (TSC, 3.1 mg/mL; containing approximately 20 mCi) was then administered at a specified time four or eight hours after test article. The radiolabeled aerosol was administered through the endotracheal tube for about 5 minutes. The sheep were then extubated, and total radioactive counts in the lung were measured every 5 minutes for a 1-hour observation period. The rate of radiolabel clearance from the lung is representative of the MCC rate in the animal. The advantage of this system is that it closely simulates the human lung environment. The model also allows for the collection of simultaneous PK/PD information through plasma and urine sampling over the test period. There are also several techniques to measure the drug concentrations on the airway surface during the MCC measurements. These include the collection of exhaled breath condensates or a filter paper method to obtain ASL via bronchoscopy.
The ovine model described above was used to evaluate the in vivo effects (efficacy/durability) of aerosol-delivered Compound II-d on MCC. Treatments consisting of either 4 mL of Compound II-d, Comparative Example 1, (S)-3,5-diamino-6-chloro-N—(N-(4-(4-(2,3-diamino-3-oxopropoxy)phenyl)butyl)carbamimidoyl)pyrazine-2-carboxamide, vehicle (sterile distilled H2O), or test agent in combination with HS were tested. To determine if combining HS with Compound II-d MCC, HS was administered immediately following Compound II-d administration. […] Radioactive counts were measured in a central region in the right lung at 5 min intervals for one hour with a gamma camera. […]

N=C(NCCCCc1ccc(CC[C@H](NCCCN(C[C@H](O)[C@@H](O)[C@H](O)[C@H](O)CO)C[C@H](O)[C@@H](O)[C@H](O)[C@H](O)CO)C(N)=O)cc1)NC(=O)c1nc(Cl)c(N)nc1N [II-d, 3,5-diamino-N—(N-(4-(4-((S)-4-amino-3-(3-(bis((2S,3R,4R,5R)-2,3,4,5,6-pentahydroxyhexyl)amino)propylamino)-4-oxobutyl)phenyl)butyl)carbamimidoyl)-6-chloropyrazine-2-carboxamide]
Therapeutic Ratio: 1,000
benefit to risk ratio (sheep MCC model, MCC versus plasma potassium): greater than 1000

N=C(NCCCCc1ccc(OC[C@H](N)C(N)=O)cc1)NC(=O)c1nc(Cl)c(N)nc1N [Comparative Example 1, (S)-3,5-diamino-6-chloro-N—(N-(4-(4-(2,3-diamino-3-oxopropoxy)phenyl)butyl)carbamimidoyl)pyrazine-2-carboxamide, reference compound]
Therapeutic Ratio: 0.1

— patent US10246425B2, “3,5-diamino-6-chloro-N-(N-(4-phenylbutyl)carbamimidoyl) pyrazine-2-carboxamide compounds” (Parion Sciences, Inc., priority 2012, dated 2019)
